This is an account of results in US20220288040A1, “USE OF PYRVINIUM FOR THE TREATMENT OF A RAS PATHWAY MUTATED ACUTE MYELOID LEUKEMIA” (INSERM (INSTITUT NATIONAL DE LA SANTÉ ET DE LA RECHERCHE …, priority 2019, published 2022).

The data set deals with NF1 knockdown AML cell lines. As to the method: UptiBlue: Cells were seeded in 100 μl of culture medium for 48 hours. […] The UptiBlue viable cell-counting reagent (Interchim, Montluçon, France) was then added for 4 hours and fluorescence was measured with a Typhoon 8600 scanner (GE Healthcare BioSciences, Buc, France).

For the molecule `Cc1cc(/C=C/c2ccc3cc(N(C)C)ccc3[n+]2C)c(C)n1-c1ccccc1` [pyrvinium pamoate, 2-[(E)-2-(2,5-dimethyl-1-phenyl-1H-pyrrol-3-yl)ethenyl]-6-(dimethylamino)-1-methylquinolin-1-ium], the cytotoxic activity entry is “strong cytotoxic activity”.
